{"source": "paper doi:10.1101/2023.08.31.555694", "molecules": {"B1": {"name": "GFP-tagged Fny-CMV 1a protein (protein, UniProt P17769 1-993)", "chain": "MATSSFNINELVASHGDKGLLATALVDKTAHEQLEEQLQHQRRGRKVYIRNVLGVKDSEVIRNRYGGKYDLHLTQQEFAPHGLAGALRLCETLDCLDSFPSSGLRQDLVLDFGGSWVTHYLRGHNVHCCSPCLGIRDKMRHAERLMNMRKIILNDPQQFDGRQPDFCTQPAADCKVQAHFAISIHGGYDMGFRGLCEAMNAHGTTILKGTMMFDGAMMFDDQGVIPELNCQWRKIRSAFSETEDVTPLVGKLNSTVFSRVRKFKTMVAFDFINESTMSYVHDWENIKSFLTDQTYSYRGMTYGIERCVIHAGIMTYKIIGVPGMCPPELIRHCIWFPSIKDYVGLKIPASQDLVEWKTVRILTSTLRETEEIAMRCYNDKKAWMEQFKVILGVLSAKSSTIVINGMSMQSGERIDINDYHYIGFAILLHTKMKYEQLGKMYDMWNASSISKWFAALTRPLRVFFSSVVHALFPTLRPREEKEFLIKLSTFVTFNEECSFDGGEEWDVISSAAYVATQAVTDGKILAAQKAEKLAEKLAQPVSEVSDSPETSSQTPDDTADVCGREREVSELDSLSAQTRSPITRVAERATAMLEYAAYEKQLHDTTVSNLKRIWNMAGGDDKRNSLEGNLKFVFDTYFTVDPMVNIHFSTGRWMRPVPEGIVYSVGYNERGLGPKSDGELYIVNSECVICNSESLSTVTRSLQAPTGTISQVDGVAGCGKTTAIKSIFEPSTDMIVTANKKSAQDVRMALFKSSDSKEACTFVRTADSVLLNECPTVSRVLVDEVVLLHFGQLCAVMSKLKAVRAICFGDSEQIAFSSRDASFDMRFSKIIPDETSDADTTFRSPQDVVPLVRLMATKALPKGTHSKYTKWVSQSKVKRSVTSRAIASVTLVDLDSSRFYITMTQADKASLISRAKEMNLPKTFWNERIKTVHESQGISEDHVTLVRLKSTKCDLFKQFSYCLVALTRHKVTFRYEYCGVLNGDLIAECVARA"}}, "key": {"[1]": {"target": "T1, Fny-CMV 1a protein, YFP N-proximal domain fusion for BiFC (cucumber mosaic virus, strain Fny) (UniProt P17769)", "T1 sequence": "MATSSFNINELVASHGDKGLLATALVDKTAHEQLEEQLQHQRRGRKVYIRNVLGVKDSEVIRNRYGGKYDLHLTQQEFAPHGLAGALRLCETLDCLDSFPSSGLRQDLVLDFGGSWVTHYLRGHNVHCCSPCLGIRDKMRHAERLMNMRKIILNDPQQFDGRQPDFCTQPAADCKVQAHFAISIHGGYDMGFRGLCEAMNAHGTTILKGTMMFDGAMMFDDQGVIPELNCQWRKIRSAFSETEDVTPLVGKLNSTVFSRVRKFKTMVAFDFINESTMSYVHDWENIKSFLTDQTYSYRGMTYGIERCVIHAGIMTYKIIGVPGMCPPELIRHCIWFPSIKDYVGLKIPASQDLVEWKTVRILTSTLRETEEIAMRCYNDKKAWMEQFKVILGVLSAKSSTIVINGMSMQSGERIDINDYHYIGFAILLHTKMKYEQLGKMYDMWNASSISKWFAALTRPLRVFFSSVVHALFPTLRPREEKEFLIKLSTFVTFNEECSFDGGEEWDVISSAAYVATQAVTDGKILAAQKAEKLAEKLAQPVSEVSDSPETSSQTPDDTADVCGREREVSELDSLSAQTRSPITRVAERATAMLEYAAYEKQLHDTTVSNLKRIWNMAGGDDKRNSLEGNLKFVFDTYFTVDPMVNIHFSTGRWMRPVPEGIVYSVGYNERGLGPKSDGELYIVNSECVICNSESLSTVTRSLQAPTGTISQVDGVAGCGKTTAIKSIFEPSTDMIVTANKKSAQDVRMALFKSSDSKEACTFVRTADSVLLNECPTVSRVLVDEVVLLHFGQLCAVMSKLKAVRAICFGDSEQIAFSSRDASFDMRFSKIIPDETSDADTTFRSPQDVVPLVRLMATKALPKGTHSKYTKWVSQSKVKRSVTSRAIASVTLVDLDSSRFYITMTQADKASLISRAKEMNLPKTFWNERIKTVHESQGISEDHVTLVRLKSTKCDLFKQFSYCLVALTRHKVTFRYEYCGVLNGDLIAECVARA", "assay": "split reporter"}, "[2]": {"target": "Fny-CMV 2b protein, C-terminal RFP fusion (cucumber mosaic virus, strain Fny)", "assay": "co-IP"}, "[3]": {"target": "Ho-CMV 2b protein (recapitulated from Fny-CMV 2b), C-terminal RFP fusion (cucumber mosaic virus, strain Ho)", "assay": "co-IP"}}, "note": "No constants are given. Whether binding was seen depends on the method and setting. Binding seen in cells or lysates may run through a third protein. Binding can be weak; no strength is given. Where a sequence is shown, tags or fusion partners need not be part of it."}
{"molecule": "Fny-CMV 2b protein, split-YFP fusion for BiFC (cucumber mosaic virus, strain Fny)", "values": [{"measurement": "binding", "setting": "[1]", "result": "binds"}]}
{"molecule": "Ho-CMV 2b protein (recapitulated from Fny-CMV 2b), split-YFP fusion for BiFC (cucumber mosaic virus, strain Ho)", "values": [{"measurement": "binding", "setting": "[1]", "result": "binds"}]}
{"molecule": "B1", "values": [{"measurement": "binding", "setting": "[2]", "result": "binds"}, {"measurement": "binding", "setting": "[3]", "result": "binds"}]}
